Source: paper PMC6458266
These are yes or no findings as the source states them, for the method shown. In cells and extracts the contact can be indirect. Some entries that bind do so weakly or less than the wild type. For some assays here: Sequences can lack the tags named with a protein.

T1: Flag-NEDD9 (neural precursor cell expressed developmentally downregulated protein 9) (human) (UniProt Q14511)
T1 sequence: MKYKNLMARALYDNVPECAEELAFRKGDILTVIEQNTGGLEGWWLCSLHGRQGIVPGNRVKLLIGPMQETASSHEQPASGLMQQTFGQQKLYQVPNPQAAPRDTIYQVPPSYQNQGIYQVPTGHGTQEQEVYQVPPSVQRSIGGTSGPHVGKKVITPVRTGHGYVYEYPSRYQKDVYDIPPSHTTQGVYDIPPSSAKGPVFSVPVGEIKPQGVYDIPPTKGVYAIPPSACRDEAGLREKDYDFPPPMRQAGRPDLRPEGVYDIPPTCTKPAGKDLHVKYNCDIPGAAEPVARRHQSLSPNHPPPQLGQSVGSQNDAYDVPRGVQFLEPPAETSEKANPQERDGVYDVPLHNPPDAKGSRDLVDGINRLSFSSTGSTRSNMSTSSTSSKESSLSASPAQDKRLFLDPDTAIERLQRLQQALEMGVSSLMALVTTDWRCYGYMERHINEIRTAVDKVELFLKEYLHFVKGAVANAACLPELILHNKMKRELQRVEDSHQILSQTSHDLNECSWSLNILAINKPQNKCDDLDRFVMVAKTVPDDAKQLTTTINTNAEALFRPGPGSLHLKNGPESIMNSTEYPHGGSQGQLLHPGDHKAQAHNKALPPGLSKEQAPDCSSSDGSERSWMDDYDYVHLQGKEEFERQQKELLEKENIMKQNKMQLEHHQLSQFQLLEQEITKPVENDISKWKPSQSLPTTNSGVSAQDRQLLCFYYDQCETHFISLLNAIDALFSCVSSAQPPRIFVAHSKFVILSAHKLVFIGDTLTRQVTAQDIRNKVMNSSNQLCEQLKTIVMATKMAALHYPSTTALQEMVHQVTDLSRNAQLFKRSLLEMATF

T2: endogenous NEDD9 (human (endogenous in BGC-823 and SGC-7901)) (UniProt Q14511)
T2 sequence: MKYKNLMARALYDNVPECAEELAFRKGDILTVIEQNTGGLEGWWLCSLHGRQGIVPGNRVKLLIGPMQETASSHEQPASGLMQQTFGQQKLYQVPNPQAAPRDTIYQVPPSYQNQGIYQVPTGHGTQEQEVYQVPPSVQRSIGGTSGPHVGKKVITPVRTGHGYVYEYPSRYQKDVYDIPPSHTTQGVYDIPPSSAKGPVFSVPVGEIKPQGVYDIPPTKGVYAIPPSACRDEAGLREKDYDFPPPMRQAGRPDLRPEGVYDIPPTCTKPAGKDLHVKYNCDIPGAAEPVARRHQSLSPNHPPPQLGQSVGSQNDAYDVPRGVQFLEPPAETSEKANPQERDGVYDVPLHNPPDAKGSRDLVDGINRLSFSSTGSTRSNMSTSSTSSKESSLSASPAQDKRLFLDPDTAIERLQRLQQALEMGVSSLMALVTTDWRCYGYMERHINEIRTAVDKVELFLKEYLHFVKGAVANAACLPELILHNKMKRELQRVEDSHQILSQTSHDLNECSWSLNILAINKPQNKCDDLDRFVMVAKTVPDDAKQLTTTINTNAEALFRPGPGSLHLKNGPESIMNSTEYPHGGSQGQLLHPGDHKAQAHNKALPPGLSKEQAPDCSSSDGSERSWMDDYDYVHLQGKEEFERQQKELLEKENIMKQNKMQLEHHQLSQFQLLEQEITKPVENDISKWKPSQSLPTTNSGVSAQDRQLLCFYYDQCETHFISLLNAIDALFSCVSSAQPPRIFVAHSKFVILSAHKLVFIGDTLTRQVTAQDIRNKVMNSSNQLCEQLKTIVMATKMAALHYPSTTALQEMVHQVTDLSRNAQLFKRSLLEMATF


Assays:
[1] = target: T1, Flag-NEDD9 (neural precursor cell expressed developmentally downregulated protein 9) (human); assay: co-IP; HEK293T cells co-transfected with HA-tagged MICAL1 and/or FLAG-tagged NEDD9; lysates incubated with antibody at 4°C for 4 h, protein A+G agarose beads, rinsed with PBS, immunoblotting
[2] = target: T2, endogenous NEDD9 (human (endogenous in BGC-823 and SGC-7901)); assay: co-IP; endogenous proteins in BGC-823 and SGC-7901 cell lysates, with and without hypoxia (1% O2); lysates incubated with antibody at 4°C for 4 h, protein A+G agarose beads, rinsed with PBS, immunoblotting

binding [1]	binding [2]	Binder
binds	–	HA-MICAL1 (protein, UniProt Q8TDZ2 1-1067) MASPTSTNPAHAHFESFLQAQLCQDVLSSFQELCGALGLEPGGGLPQYHKIKDQLNYWSAKSLWTKLDKRAGQPVYQQGRACTSTKCLVVGAGPCGLRVAVELALLGARVVLVEKRTKFSRHNVLHLWPFTIHDLRALGAKKFYGRFCTGTLDHISIRQLQLLLLKVALLLGVEIHWGVTFTGLQPPPRKGSGWRAQLQPNPPAQLANYEFDVLISAAGGKFVPEGFKVREMRGKLAIGITANFVNGRTVEETQVPEISGVARIYNQSFFQSLLKATGIDLENIVYYKDDTHYFVMTAKKQCLLRLGVLRQDWPDTNRLLGSANVVPEALQRFTRAAADFATHGKLGKLEFAQDAHGQPDVSAFDFTSMMRAESSARVQEKHGARLLLGLVGDCLVEPFWPLGTGVARGFLAAFDAAWMVKRWAEGAESLEVLAERESLYQLLSQTSPENMHRNVAQYGLDPATRYPNLNLRAVTPNQVRDLYDVLAKEPVQRNNDKTDTGMPATGSAGTQEELLRWCQEQTAGYPGVHVSDLSSSWADGLALCALVYRLQPGLLEPSELQGLGALEATAWALKVAENELGITPVVSAQAVVAGSDPLGLIAYLSHFHSAFKSMAHSPGPVSQASPGTSSAVLFLSKLQRTLQRSRAKENAEDAGGKKLRLEMEAETPSTEVPPDPEPGVPLTPPSQHQEAGAGDLCALCGEHLYVLERLCVNGHFFHRSCFRCHTCEATLWPGGYEQHPGDGHFYCLQHLPQTDHKAEGSDRGPESPELPTPSENSMPPGLSTPTASQEGAGPVPDPSQPTRRQIRLSSPERQRLSSLNLTPDPEMEPPPKPPRSCSALARHALESSFVGWGLPVQSPQALVAMEKEEKESPFSSEEEEEDVPLDSDVEQALQTFAKTSGTMNNYPTWRRTLLRRAKEEEMKRFCKAQTIQRRLNEIEAALRELEAEGVKLELALRRQSSSPEQQKKLWVGQLLQLVDKKNSLVAEEAELMITVQELNLEEKQWQLDQELRGYMNREENLKTAADRQAEDQVLRKLVDLVNQRDALIRFQEERRLSELALGTGAQG
–	binds	endogenous MICAL1 (protein, UniProt Q8TDZ2 1-1067) MASPTSTNPAHAHFESFLQAQLCQDVLSSFQELCGALGLEPGGGLPQYHKIKDQLNYWSAKSLWTKLDKRAGQPVYQQGRACTSTKCLVVGAGPCGLRVAVELALLGARVVLVEKRTKFSRHNVLHLWPFTIHDLRALGAKKFYGRFCTGTLDHISIRQLQLLLLKVALLLGVEIHWGVTFTGLQPPPRKGSGWRAQLQPNPPAQLANYEFDVLISAAGGKFVPEGFKVREMRGKLAIGITANFVNGRTVEETQVPEISGVARIYNQSFFQSLLKATGIDLENIVYYKDDTHYFVMTAKKQCLLRLGVLRQDWPDTNRLLGSANVVPEALQRFTRAAADFATHGKLGKLEFAQDAHGQPDVSAFDFTSMMRAESSARVQEKHGARLLLGLVGDCLVEPFWPLGTGVARGFLAAFDAAWMVKRWAEGAESLEVLAERESLYQLLSQTSPENMHRNVAQYGLDPATRYPNLNLRAVTPNQVRDLYDVLAKEPVQRNNDKTDTGMPATGSAGTQEELLRWCQEQTAGYPGVHVSDLSSSWADGLALCALVYRLQPGLLEPSELQGLGALEATAWALKVAENELGITPVVSAQAVVAGSDPLGLIAYLSHFHSAFKSMAHSPGPVSQASPGTSSAVLFLSKLQRTLQRSRAKENAEDAGGKKLRLEMEAETPSTEVPPDPEPGVPLTPPSQHQEAGAGDLCALCGEHLYVLERLCVNGHFFHRSCFRCHTCEATLWPGGYEQHPGDGHFYCLQHLPQTDHKAEGSDRGPESPELPTPSENSMPPGLSTPTASQEGAGPVPDPSQPTRRQIRLSSPERQRLSSLNLTPDPEMEPPPKPPRSCSALARHALESSFVGWGLPVQSPQALVAMEKEEKESPFSSEEEEEDVPLDSDVEQALQTFAKTSGTMNNYPTWRRTLLRRAKEEEMKRFCKAQTIQRRLNEIEAALRELEAEGVKLELALRRQSSSPEQQKKLWVGQLLQLVDKKNSLVAEEAELMITVQELNLEEKQWQLDQELRGYMNREENLKTAADRQAEDQVLRKLVDLVNQRDALIRFQEERRLSELALGTGAQG
